In this series the target is T1, MS2 coat protein, dlFG mutant del68-81insG (Escherichia phage MS2) (UniProt P03612).
T1 sequence (looked up, limits assumed): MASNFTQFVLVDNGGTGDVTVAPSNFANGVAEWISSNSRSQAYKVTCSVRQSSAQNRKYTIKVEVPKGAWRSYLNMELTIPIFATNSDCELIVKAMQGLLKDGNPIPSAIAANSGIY
The experiment in a line: binding assay. The note with it: 4 mM Mg2+, RNA-MaP array, 100 mM Tris-HCl pH 7.5, 80 mM KCl, 4 mM MgCl2, 0.1 mg/mL BSA, 1 mM DTT, 0.01 mg/mL yeast tRNA, 0.01% Tween-20, protein 1.5 nM to 3 uM, 37 C (Table S3), purified recombinant protein.

Protein sequences can lack the tags named with them. A value given as a limit tells only on which side of the number the result lay.

Turning to “AAGUUUUUACAAGGAUAUCAUUUGUUUCUAAAUUCAACAUGAGGAUCACCCAUGUAACAAUGGAGUGAGAAGGUGUGUUGGCAA [Eterna 6116852 (Same State NG 2)]”, under “no ligand”, the Kd is greater than 3000 nM. Turning to “AGUAUGUACGCAGGAUAUACAUGAGGAUCACCCAUGUGGAACAGUGUAGUACUAGUUGAUCCUCAGUAGAAGGGCGGCCGAAUA [Eterna 6148107 (Exclusion NG 2)]”, the Kd (no ligand) is greater than 3000 nM.

Regarding “AGUUACAGGAUAGGAUAUGGCGUGACAUGGCUGCCAGAAGGAUCCUCGGGAACAUGAGGAUCACCCAUGUGACCGUGUCGAGUC [Eterna 6148515 (Same State NG 1)]”, the equilibrium dissociation constant (Kd) (no ligand) was greater than 3000 nM.

Regarding “UACCGGCGGACCGAAGCUUUUUGCUUGUUUUAUACUACAACAUGAGGAUCACCCAUGUGGUGGUGGUCCGUUGUAGU [Eterna 13145 (Sensor v3, turn-off variant 2)]”, the Kd (miR-208a RNA 100 nM (AUAAGACGAGCAAAAAGCUUGU)) is greater than 3000 nM. On to “UGACUGGAUGGAAGGAGCGCUAAACUCCUAGUGAUGUUAGGGACAUGAGGCACAGCCUUGAAGCAGGUAGGUCGCCAUCUAGUCU [Eterna 7756304 (Same State - Arginine B)]”, for which the Kd (no ligand, variant of MS2 control) is greater than 3000 nM. Take “UGCGUGGUCACAGGAUAUGCAAGAUAAACUUUAGCAGAAGGGUGAUCAAUCAGCUCAAUACCACAUGAGGAUCACCCAUGUCUA [Eterna 6148559 (Same State NG 1)]”: the Kd (no ligand) is greater than 3000 nM.

With “UUUAGGAGUCAAGGAUAUGCUACCGUUUCGGUAGCAGAAGGUGAUCACAUGAGGAUCACCCAUGUAUGCAUGCGUGAGCGUGCU [Eterna 5940264 (Same State NG 1)]”, the equilibrium dissociation constant (Kd) (no ligand) was greater than 3000 nM.

These data come from paper PMC9170038, “Crowdsourced RNA design discovers diverse, reversible, efficient, self-contained molecular switches”.
